Reference: publication PMC6609651
No constants are given. Whether binding was seen depends on the method and setting. Binding calls can cover weak binding; strength is not graded here.

Chains of the proteins cited; added tags and fusions are not shown. Lines headed by an entry give the natural chain unless they say otherwise; changes in a name come on top. Residues count along the entry.
UniProt Q03591, residues 19-330: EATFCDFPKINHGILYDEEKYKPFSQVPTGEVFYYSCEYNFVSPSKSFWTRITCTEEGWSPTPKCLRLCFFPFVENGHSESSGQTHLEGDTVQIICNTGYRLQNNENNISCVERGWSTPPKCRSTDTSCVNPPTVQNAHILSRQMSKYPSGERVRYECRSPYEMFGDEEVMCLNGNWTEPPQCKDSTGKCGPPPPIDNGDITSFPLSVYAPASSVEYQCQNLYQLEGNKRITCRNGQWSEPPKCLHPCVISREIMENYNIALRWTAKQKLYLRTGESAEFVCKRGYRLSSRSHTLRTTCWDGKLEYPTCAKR
UniProt Q9UHX3: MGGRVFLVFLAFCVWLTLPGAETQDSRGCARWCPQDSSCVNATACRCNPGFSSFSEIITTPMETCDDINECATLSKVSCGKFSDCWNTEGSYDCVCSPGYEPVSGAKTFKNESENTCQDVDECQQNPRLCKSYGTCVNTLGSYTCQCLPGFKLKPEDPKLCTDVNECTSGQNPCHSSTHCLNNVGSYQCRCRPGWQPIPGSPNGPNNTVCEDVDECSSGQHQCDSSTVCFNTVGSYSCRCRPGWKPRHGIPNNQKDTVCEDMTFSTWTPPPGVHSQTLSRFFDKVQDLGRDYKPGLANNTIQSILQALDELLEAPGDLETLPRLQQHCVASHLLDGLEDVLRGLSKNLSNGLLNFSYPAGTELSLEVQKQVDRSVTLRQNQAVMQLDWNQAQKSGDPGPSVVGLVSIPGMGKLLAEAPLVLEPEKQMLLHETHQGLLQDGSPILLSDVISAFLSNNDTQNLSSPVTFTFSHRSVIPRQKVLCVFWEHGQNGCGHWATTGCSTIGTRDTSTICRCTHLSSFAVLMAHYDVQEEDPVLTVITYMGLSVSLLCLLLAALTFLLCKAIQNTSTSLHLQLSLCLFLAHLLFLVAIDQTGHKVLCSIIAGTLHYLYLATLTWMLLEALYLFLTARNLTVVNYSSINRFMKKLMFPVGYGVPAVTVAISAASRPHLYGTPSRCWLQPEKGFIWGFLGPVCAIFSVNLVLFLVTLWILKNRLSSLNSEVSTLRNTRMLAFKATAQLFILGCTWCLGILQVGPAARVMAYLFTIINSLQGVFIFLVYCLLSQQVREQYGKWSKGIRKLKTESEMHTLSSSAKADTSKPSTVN
UniProt P36980, residues 19-270: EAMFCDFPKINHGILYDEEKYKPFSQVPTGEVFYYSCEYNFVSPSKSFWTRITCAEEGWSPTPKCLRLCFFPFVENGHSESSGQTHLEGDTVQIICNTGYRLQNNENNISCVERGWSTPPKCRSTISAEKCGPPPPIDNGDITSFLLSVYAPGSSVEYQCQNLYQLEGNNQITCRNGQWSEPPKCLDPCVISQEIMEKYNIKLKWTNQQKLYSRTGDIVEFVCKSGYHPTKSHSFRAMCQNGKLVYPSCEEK

Assays:
FHR1 SCR1-2 (human) [1] = target: FHR1 SCR1-2 (human) (UniProt Q03591); assay: ELISA; competition: FHR1 SCR1-2 (5 μg mL^-1) immobilised, NHS (5%) in DPBS 1 h at 37 °C, FHR2 or FHR2DM (0, 1, 5 or 15 μg mL^-1) added; FHR1 detected with monoclonal antibody C18, FHR2DM with monoclonal FHR2 antibody; both purified
[2] = target: Recombinant human EMR2 (human) (UniProt Q9UHX3); assay: SPR; Biacore 3000, as described for MDA-LDL (CM5 chip, standard amine coupling, flow 5 μL min^-1, 25 °C); FHR1 125-2,000 nM in PBS injected; both purified
[3] = target: Recombinant factor H-related protein FHR1 (human) (UniProt Q03591); assay: ELISA; FHR1 (10 μg mL^-1) or gelatin immobilised on a microtiter plate o.n. at 4 °C, blocked; EMR2 (30 μg mL^-1) 2 h at 37 °C; detected with polyclonal EMR2 antiserum; both purified
FHR1 SCR1-2 (human) [4] = target: FHR1 SCR1-2 (human) (UniProt Q03591); assay: ELISA; FHR1 SCR1-2 (5 μg mL^-1) immobilised over night at 4 °C, incubated with NHS (5%) in DPBS 1 h at 37 °C; serum FHR1 detected with monoclonal antibody C18; only the target purified

Which binding (FHR1 SCR1-2 (human) [1]) does the source give for “Recombinant FHR2 (from UniProt P36980 19-270)” here?
The binding was “binds”.

For “Recombinant factor H-related protein FHR1 (from UniProt Q03591 19-330)”, which binding [2] is on record?
The binding was “binds”.

“Recombinant human EMR2 (from UniProt Q9UHX3) (receptor)” was tested. Which binding [3] did it give?
The binding was “binds”.

With “Serum-derived FHR1 (from UniProt Q03591 19-330)” as the substance, how does the binding (FHR1 SCR1-2 (human) [4]) read?
The binding was “binds”.
